For at least one compound, name, drawing or mass did not settle the structure.
Test system: IL-2 proximal promoter driven-luciferase
Experiment: IL-2 luciferase reporter assay in Jurkat T-cells (PMA/ionomycin)
Type: cell-based, human
Conditions: library screen, 10 μM final concentration, 96-well

C=CC[C@@H]1/C=C(\C)C[C@H](C)C[C@H](OC)[C@H]2O[C@@](O)(C(=O)C(=O)N3CCCC[C@H]3C(=O)O[C@H](/C(C)=C/[C@@H]3CC[C@@H](O)[C@H](OC)C3)[C@H](C)[C@@H](O)CC1=O)[C@H](C)C[C@@H]2OC [FK506]
screen result in IL-2 reporter assay: positive hits
